For at least one compound, name, drawing or mass did not settle the structure.
Biological target: T1, human histone demethylase JMJD2A (catalytic domain, residues 1-350) (Homo sapiens, UniProt O75164)
T1 construct: recombinantly produced catalytic domain, residues 1-350, of the human histone demethylase JMJD2A
T1 sequence (O75164 1-350): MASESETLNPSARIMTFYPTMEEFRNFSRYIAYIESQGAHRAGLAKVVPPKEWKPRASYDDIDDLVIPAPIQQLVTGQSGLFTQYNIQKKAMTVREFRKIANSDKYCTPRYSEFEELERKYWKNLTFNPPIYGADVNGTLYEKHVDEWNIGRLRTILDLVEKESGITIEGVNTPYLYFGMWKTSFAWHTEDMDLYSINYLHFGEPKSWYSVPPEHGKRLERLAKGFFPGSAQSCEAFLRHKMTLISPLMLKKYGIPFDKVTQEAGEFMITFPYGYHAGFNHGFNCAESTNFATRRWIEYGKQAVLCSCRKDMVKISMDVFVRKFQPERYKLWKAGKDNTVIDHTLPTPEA
Test: Jumonji type histone demethylase (JMJD2A) activity assay with Luminos reagent formaldehyde fluorescence detection
Assay type: biochemical
Conditions: 0.2 mM desferoxamine; 0.5 mM 2-OG, 0.3 mM H3K9me3 peptide, 5 μM JMJD2A, 37° C., 30 minutes; triplicate
Experimental: A series of demethylase assays with Luminos reagent are performed. These assays are conducted with recombinantly produced catalytic domain, residues 1-350, of the human histone demethylase JMJD2A that demethylates the trimethylated forms of Lys9 and Lys36 in histone H3.
A positive control assay is performed using a 100 microliter assay cocktail of 20 mM HEPES pH 7.5, 50 mM NaCl, 1 mM Sodium Ascorbate, 0.05 mM FeSO4, and 5 μM JMJD2A. The assay is initiated by the addition of the cofactor 2-oxoglutarate (2-OG, 0.5 mM) and a 15-residue histone H3 trimethylated Lys9 (H3K9me3) substrate peptide (0.3 mM, H2N-[…](tri-methyl)STGGKA-amide) (SEQ ID NO. 1).
Three negative control reactions are performed in which 2-OG, the H3K9me3 peptide, and JMJD2A are omitted, respectively. […] Specifically, reactions are performed with 1.0 mM N-oxalylglycine (NOG), a competitive inhibitor of 2-OG, and desferoxamine (0.2 mM), a potent Fe(II) chelator that inhibits the oxidative reaction catalyzed by Fe(II)-dependent JmjC demethylases. […] Fifty microliters of the Luminos reagent solution prepared as described in Example 1 is then added to each reaction and the fluorescence is allowed to develop at 37° C. for 30 minutes. The fluorescence of the formaldehyde-Luminos reagent adduct is measured at 510 nm using an excitation wavelength of 440 nm with a Tecan Safire 2 microplate reader. […]

SMILES: CC(=O)N(O)CCCCCNC(=O)CCC(=O)N(O)CCCCCNC(=O)CCC(=O)N(O)CCCCCN [deferoxamine, desferoxamine]
- diminishes fluorescence in comparison to the positive control assay: 12 fold

— patent US8765396B2, “Method of screening a test agent for activity to modulate an oxidative demethylation enzyme” (Arbor Assays LLC, priority 2009, dated 2014)
